Assay results reported in doi:10.1101/670034.
Results are given in words; binding and its absence hold for the method and conditions named. In cells and extracts the contact can be indirect. Some entries that bind do so weakly or less than the wild type. For some of these results: Tags and fused reporters may be left off the sequences shown.

The chains behind the UniProt entries cited, without tags or fusion partners.
UniProt Q7Z2H8: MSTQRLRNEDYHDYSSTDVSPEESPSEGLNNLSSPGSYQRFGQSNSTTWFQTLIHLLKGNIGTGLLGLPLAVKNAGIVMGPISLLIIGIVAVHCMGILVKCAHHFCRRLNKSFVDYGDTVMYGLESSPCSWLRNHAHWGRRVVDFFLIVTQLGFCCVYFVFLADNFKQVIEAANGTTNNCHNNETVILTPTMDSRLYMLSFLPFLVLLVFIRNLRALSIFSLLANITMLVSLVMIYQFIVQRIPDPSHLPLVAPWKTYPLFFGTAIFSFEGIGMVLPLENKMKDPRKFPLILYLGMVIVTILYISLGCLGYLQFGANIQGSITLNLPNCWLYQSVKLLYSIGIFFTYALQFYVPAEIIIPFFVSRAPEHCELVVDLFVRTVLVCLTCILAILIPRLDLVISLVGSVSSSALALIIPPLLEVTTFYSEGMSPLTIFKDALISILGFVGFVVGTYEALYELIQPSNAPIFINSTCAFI

T1: PQLC2-2xHA expressed from the endogenous locus (human (endogenous in HEK293FT)) (UniProt Q6ZP29)
T1 sequence: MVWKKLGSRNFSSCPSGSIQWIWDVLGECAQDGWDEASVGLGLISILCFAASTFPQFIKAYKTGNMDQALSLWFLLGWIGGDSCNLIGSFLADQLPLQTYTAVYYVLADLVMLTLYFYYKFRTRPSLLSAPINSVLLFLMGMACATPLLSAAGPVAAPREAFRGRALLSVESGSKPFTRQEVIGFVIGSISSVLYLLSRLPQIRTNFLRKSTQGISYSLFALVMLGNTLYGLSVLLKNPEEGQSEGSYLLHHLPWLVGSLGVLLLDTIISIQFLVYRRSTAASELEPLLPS

T2: PQLC2-FLAG (wild type) (UniProt Q6ZP29)
T2 sequence: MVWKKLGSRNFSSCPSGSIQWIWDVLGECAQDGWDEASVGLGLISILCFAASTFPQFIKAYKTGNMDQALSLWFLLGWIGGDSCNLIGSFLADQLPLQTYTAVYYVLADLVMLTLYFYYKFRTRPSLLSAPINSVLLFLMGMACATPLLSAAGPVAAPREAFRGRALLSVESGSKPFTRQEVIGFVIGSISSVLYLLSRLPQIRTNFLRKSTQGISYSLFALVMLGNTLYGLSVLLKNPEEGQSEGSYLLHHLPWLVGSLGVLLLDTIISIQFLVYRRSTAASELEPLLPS


Assays:
Experiment in all cases: co-IP
[1] = biological target: T1, PQLC2-2xHA expressed from the endogenous locus (human (endogenous in HEK293FT))
PQLC2-FLAG (wild type) = biological target: T2, PQLC2-FLAG (wild type)
[2] = biological target: FLAG-tagged PAT1 (also known as LYAAT1 and SLC36A1) (UniProt Q7Z2H8)

Binder | binding [1] | binding (PQLC2-FLAG (wild type)) | binding [2]
WDR41 (endogenous) (protein, UniProt Q9HAD4 1-459) MLRWLIGGGREPQGLAEKSPLQTIGEEQTQNPYTELLVLKAHHDIVRFLVQLDDYRFASAGDDGIVVVWNAQTGEKLLELNGHTQKITAIITFPSLESCEEKNQLILTASADRTVIVWDGDTTRQVQRISCFQSTVKCLTVLQRLDVWLSGGNDLCVWNRKLDLLCKTSHLSDTGISALVEIPKNCVVAAVGKELIIFRLVAPTEGSLEWDILEVKRLLDHQDNILSLINVNDLSFVTGSHVGELIIWDALDWTMQAYERNFWDPSPQLDTQQEIKLCQKSNDISIHHFTCDEENVFAAVGRGLYVYSLQMKRVIACQKTAHDSNVLHVARLPNRQLISCSEDGSVRIWELREKQQLAAEPVPTGFFNMWGFGRVSKQASQPVKKQQENATSCSLELIGDLIGHSSSVEMFLYFEDHGLVTCSADHLIILWKNGERESGLRSLRLFQKLEENGDLYLAV | binds | binds | –
2xHA-C9orf72 expressed from the endogenous locus (protein, UniProt Q96LT7 1-481) MSTLCPPPSPAVAKTEIALSGKSPLLAATFAYWDNILGPRVRHIWAPKTEQVLLSDGEITFLANHTLNGEILRNAESGAIDVKFFVLSEKGVIIVSLIFDGNWNGDRSTYGLSIILPQTELSFYLPLHRVCVDRLTHIIRKGRIWMHKERQENVQKIILEGTERMEDQGQSIIPMLTGEVIPVMELLSSMKSHSVPEEIDIADTVLNDDDIGDSCHEGFLLNAISSHLQTCGCSVVVGSSAEKVNKIVRTLCLFLTPAERKCSRLCEAESSFKYESGLFVQGLLKDSTGSFVLPFRQVMYAPYPTTHIDVDVNTVKQMPPCHEHIYNQRRYMRSELTAFWRATSEEDMAQDTIIYTDESFTPDLNIFQDVLHRDTLVKAFLDQVFQLKPGLSLRSTFLAQFLLVLHRKALTLIKYIEDDTQKGKKPFKSLRNLKIDLDLTAEGDLNIIMALAEKIKPGLHSFIFGRPFYTSVQERDVLMTF | – | – | no binding
SMCR8 (endogenous) (protein, UniProt Q8TEV9 1-937) MISAPDVVAFTKEEEYEEEPYNEPALPEEYSVPLFPFASQGANPWSKLSGAKFSRDFILISEFSEQVGPQPLLTIPNDTKVFGTFDLNYFSLRIMSVDYQASFVGHPPGSAYPKLNFVEDSKVVLGDSKEGAFAYVHHLTLYDLEARGFVRPFCMAYISADQHKIMQQFQELSAEFSRASECLKTGNRKAFAGELEKKLKDLDYTRTVLHTETEIQKKANDKGFYSSQAIEKANELASVEKSIIEHQDLLKQIRSYPHRKLKGHDLCPGEMEHIQDQASQASTTSNPDESADTDLYTCRPAYTPKLIKAKSTKCFDKKLKTLEELCDTEYFTQTLAQLSHIEHMFRGDLCYLLTSQIDRALLKQQHITNFLFEDFVEVDDRMVEKQESIPSKPSQDRPPSSSLEECPIPKVLISVGSYKSSVESVLIKMEQELGDEEYKEVEVTELSSFDPQENLDYLDMDMKGSISSGESIEVLGTEKSTSVLSKSDSQASLTVPLSPQVVRSKAVSHRTISEDSIEVLSTCPSEALIPDDFKASYPSAINEEESYPDGNEGAIRFQASISPPELGETEEGSIENTPSQIDSSCCIGKESDGQLVLPSTPAHTHSDEDGVVSSPPQRHRQKDQGFRVDFSVENANPSSRDNSCEGFPAYELDPSHLLASRDISKTSLDNYSDTTSYVSSVASTSSDRIPSAYPAGLSSDRHKKRAGQNALKFIRQYPFAHPAIYSLLSGRTLVVLGEDEAIVRKLVTALAIFVPSYGCYAKPVKHWASSPLHIMDFQKWKLIGLQRVASPAGAGTLHALSRYSRYTSILDLDNKTLRCPLYRGTLVPRLADHRTQIKRGSTYYLHVQSMLTQLCSKAFLYTFCHHLHLPTHDKETEELVASRQMSFLKLTLGLVNEDVRVVQYLAELLKLHYMQESPGTSHPMLRFDYVPSFLYKI | – | – | no binding
